In patent US20210324059A1:

Target: Glutathione S-transferase
Test: quality control ELISA on immobilized control protein

B1: full length chimeric antibody AbD33473 with an IgG1 mouse Fc region (antibody, V domains shown)
VH: EVQLVQSGAEVKKPGESLKISCKGSGYSFSSYWIHWVRQMPGKGLEWMGTIFPSRSYTTYSPSFQGQVTISADKSISTAYLQWSSLKASDTAMYYCARDTPSTALKSPFDYWGQGTLVTVSS
VL: DIVLTQPPSVSGAPGQRVTISCSGSSSNIGYNYVYWYQQLPGTAPKLLIYENNKRPSGVPDRFSGSKSGTSASLAITGLQAEDEADYYCSSWDSHSNSYVFGGGTKLTVLG
- binding: no binding

B2: full length chimeric antibody AbD33047 with an IgG1 mouse Fc region (antibody, V domains shown)
VH: QVQLVQSGAEVKKPGASVKVSCKASGYTFNDYYIHWVRQAPGQGLEWMGVISPNSGKTNYAQKFQGRVTMTRDTSISTAYMELSRLRSEDTAVYYCARDLYPDSSAFDIWGQGTLVTVSS
VL: DIELTQPPSVSVSPGQTASITCSGDNLGDKYAHWYQQKPGQAPVLVIYDDNERPSGIPERFSGSNSGNTATLTISGTQAEDEADYYCQSYDSGNRVFGGGTKLTVLG
- binding: no binding

No constants are given. Whether binding was seen depends on the method and setting. Tags and fused reporters may be left off the sequences shown.
